Publication doi:10.1101/2023.01.24.525215
Results are given in words; binding and its absence hold for the method and conditions named. For some of these results: Binding seen in cells or lysates may run through a third protein. Some binding calls cover weakened binding; strength is not graded here. For some of these results: Sequences can lack the tags named with a protein. Each block holds one substance with its values, some of them ahead of it.

Chains of the proteins cited; added tags and fusions are not shown.
UniProt O23320: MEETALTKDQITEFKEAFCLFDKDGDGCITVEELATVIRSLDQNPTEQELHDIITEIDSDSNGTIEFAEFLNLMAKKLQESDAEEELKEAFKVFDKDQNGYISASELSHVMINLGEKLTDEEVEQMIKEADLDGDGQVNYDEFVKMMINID

Experiments:
[1] = target: T1, ACA8-NLuc (Arabidopsis thaliana) (UniProt Q9LF79); test: split reporter
T1 sequence: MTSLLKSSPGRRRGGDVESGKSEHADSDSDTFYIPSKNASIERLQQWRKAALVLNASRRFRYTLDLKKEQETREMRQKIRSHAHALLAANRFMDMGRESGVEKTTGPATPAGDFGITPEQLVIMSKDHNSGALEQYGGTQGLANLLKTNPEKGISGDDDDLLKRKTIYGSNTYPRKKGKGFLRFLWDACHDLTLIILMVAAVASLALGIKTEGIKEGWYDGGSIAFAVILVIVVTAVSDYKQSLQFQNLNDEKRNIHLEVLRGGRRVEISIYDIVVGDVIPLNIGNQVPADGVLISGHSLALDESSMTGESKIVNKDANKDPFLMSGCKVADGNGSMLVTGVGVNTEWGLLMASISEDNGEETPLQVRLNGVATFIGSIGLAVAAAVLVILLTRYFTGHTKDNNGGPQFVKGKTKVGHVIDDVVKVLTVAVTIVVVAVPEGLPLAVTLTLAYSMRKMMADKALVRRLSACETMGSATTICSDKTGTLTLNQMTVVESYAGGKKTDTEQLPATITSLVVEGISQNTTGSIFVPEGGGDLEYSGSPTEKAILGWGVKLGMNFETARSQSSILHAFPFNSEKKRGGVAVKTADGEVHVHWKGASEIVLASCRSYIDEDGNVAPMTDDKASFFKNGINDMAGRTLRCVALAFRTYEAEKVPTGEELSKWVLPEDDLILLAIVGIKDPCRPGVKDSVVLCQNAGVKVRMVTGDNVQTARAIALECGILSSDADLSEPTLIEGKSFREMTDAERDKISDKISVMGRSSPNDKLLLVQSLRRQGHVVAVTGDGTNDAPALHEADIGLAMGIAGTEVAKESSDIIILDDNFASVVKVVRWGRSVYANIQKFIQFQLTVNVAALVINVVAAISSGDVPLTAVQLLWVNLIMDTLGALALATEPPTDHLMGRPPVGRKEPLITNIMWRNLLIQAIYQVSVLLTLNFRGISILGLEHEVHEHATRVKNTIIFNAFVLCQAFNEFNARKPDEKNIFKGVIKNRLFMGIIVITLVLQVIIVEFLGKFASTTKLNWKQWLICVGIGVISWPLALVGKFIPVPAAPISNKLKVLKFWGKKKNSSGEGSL

[2] = target: T2, ACA8 (1-180 aa)-BK (Arabidopsis thaliana) (UniProt Q9LF79); test: two-hybrid
T2 sequence: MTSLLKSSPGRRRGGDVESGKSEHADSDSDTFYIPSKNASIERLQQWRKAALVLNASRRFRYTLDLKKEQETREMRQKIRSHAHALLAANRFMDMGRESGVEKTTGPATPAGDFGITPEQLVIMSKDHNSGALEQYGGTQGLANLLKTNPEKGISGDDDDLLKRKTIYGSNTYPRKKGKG

[3] = target: T3, WRKY53 (1-217 aa)-BK (Arabidopsis thaliana) (UniProt Q9SUP6); test: two-hybrid
T3 sequence: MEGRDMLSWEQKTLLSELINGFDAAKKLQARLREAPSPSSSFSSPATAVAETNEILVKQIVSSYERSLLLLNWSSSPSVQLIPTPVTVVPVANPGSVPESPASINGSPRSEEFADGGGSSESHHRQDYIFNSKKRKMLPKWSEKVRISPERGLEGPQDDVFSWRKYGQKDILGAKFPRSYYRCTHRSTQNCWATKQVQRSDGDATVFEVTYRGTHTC

[4] = target: T4, WRKY53-NLuc (Arabidopsis thaliana) (UniProt Q9SUP6); test: split reporter
T4 sequence: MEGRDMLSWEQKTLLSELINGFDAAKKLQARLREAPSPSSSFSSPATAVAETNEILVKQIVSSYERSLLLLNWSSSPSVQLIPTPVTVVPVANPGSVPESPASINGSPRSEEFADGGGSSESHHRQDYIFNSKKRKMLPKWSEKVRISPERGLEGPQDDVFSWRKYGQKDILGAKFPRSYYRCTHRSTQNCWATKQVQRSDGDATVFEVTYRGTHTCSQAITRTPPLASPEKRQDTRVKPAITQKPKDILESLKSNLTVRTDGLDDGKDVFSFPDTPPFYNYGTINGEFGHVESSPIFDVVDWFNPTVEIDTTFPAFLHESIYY

Substance: CML8-CLuc (from UniProt O23320 1-151)
binding [1]: binds

binding [2]: binds
Substance: CML8-AD (CALMODULIN-LIKE 8 in pGADT7) (from UniProt O23320 1-151)

binding [3]: binds
Substance: CAM5-AD (CALMODULIN 5 in pGADT7) (from UniProt Q682T9 1-149)

Substance: CAM5-CLuc (from UniProt Q682T9 1-149)
binding [4]: binds
